Source: patent US20070287153

Chains of the proteins cited; added tags and fusions are not shown. Residues count along the entry.
UniProt P05107, 747-769: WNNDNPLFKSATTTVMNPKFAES

Columns and labels:
[1] = biological target: CD18cyt peptide A23 (carboxy-terminal half) (Homo sapiens) (UniProt P05107); experiment: EMSA; details: 12.5-25 uM peptide, streptavidin, 40 uM tRNA, synthetic protein, protein details: synthetic, biotinylated, streptavidin-bound, label: 32P
[2] = biological target: CD18cyt peptide B16 (N-terminal) (Homo sapiens) (UniProt P05107); experiment: EMSA; details: 12.5-25 uM peptide, streptavidin, 40 uM tRNA, synthetic protein, protein details: synthetic, biotinylated, streptavidin-bound, label: 32P
[3] = biological target: CD18cyt peptide C17 (middle portion) (Homo sapiens) (UniProt P05107); experiment: EMSA; details: 12.5-25 uM peptide, streptavidin, 40 uM tRNA, synthetic protein, protein details: synthetic, biotinylated, streptavidin-bound, label: 32P
[4] = test system: LFA-1 (CD18/beta-2 integrin with alpha-L), endogenous (Homo sapiens); experiment: EMSA; details: Jurkat E6 lysate, protein in an extract, label: 32P
[5] = test system: LFA-1 (CD18/beta-2 integrin), endogenous in cells (Homo sapiens); experiment: activity in cells; details: protein in cells, dose not given here
[6] = test system: monoclonal antibody MHM23 (anti LFA-1 beta subunit); experiment: EMSA; details: antibody alone without lysate; purified native protein; label: 32P; variant of D20
[7] = test system: monoclonal antibody OKT3 (anti T-cell receptor epsilon chain); experiment: EMSA; details: antibody alone without lysate; purified native protein; label: 32P; variant of D20

GGGCGCUAAGUCCUCGCUCACAAGGUGCAAUGCAAUAUGUGAGUGCGCCGCCCUUUCUCUCGCGCGACUCGGACCUAC [TR-D31]
binding result ([1]; variant of D31): no binding
binding result ([2]; variant of D31): binds more weakly
binding result ([3]; variant of D31): binds more weakly
binding result ([4]; analogous to TR-D20, data not shown, variant of D31): binds

GGGCGCUAAGUCCUCGCUCACGGCGCAUUGGCCGAAUUUCUGACUACCGUGAAUGAGGGUACGCGCGACUCGGAUCCUAC [TR-D42]
binding result ([1]; variant of D42): no binding
binding result ([2]; variant of D42): no binding
binding result ([3]; variant of D42): no binding
binding result ([4]; 25-40 uM tRNA, variant of D42): no binding
functional effect of the aptamer ([5]; no effect on PMA-induced adhesion of PBMC to ICAM-1, variant of D42): not active

GGGCGCUAAGUCCUCGCUCAUACAACGAGGGGUCGUGUAGGGAUGUAUGGGCUUGGACACACGCGCGACUCGGAUCCUAC [TR-D20]
binding result ([1]; variant of D20): no binding
binding result ([2]; 1 mM MgCl2, 23 C, variant of D20): binds
binding result ([3]; variant of D20): binds
binding result ([4]; 25-40 uM tRNA, 1 mM MgCl2, supershift with MHM23 and MEM170, variant of D20): binds
binding result [6]: no binding
binding result [7]: no binding
functional effect of the aptamer ([5]; vaccinia-expressed RNA almost completely blocks PMA-induced adhesion to ICAM-1 in Jurkat, also reduced in PBMC, variant of D20): active

GGGCGCUAAGUCCUCGCUCAUGCGCGUCCCAUGGGGUAUAGAGGGGUCGAAGUGGACGCGCGACUCGGAUCCUAC [TR-D28]
binding result ([1]; variant of D28): no binding
binding result ([2]; variant of D28): binds
binding result ([3]; variant of D28): binds
binding result ([4]; analogous to TR-D20, data not shown, variant of D28): binds

For at least one entry, the source does not settle the construct or the ends of the probe. Negatives hold for the conditions tested. For some assays here: Weaker means in comparison with the reference protein, sequence or condition of that experiment. For some assays here: Where cells or extracts were used, other partners may take part.
